Library screening results

Values are the deposited “Percent Effect”, in %. The controls that fix the scale are not given in the record; negative values are as filed. The compounds are a random part of those screened. Two or more numbers in one place are separate tests of the same structure; such repeats can differ widely.

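Viability assay of Plasmodium falciparum sporozoites; the read-out is not stated. The concentration is filed as 10 mM, unlikely as a test dose, so the dose is not known. The record gives no direction; compounds that gave an IC50 in retests scored well above the rest, so higher reads as lower viability. Strong results were mostly tested again. Of about 34,000 compounds tested this way, about 280 (0.84%) reached 50% or more in at least one test.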

For O=C(c1sccc1C1CC1)N1CCN(CC(F)(F)F)CC1 the result was 10.36%. With CCc1ccc(C(=O)N2CCCC(c3noc(CC)n3)C2)o1 (stereo not drawn) the screen gave -19.68% and -24.47% and -3.006%. Result for CSCCCN1CCCC1c1noc(C(C)C)n1 (stereo not drawn) was 5.793%. CCc1[nH]ncc1C(=O)N1CCCC(n2nc(C)cc2C)C1 (stereo not drawn) gave 6.066%.

CC1CCCN(CCNC(=O)c2ccn(-c3ccccc3)n2)C1 (stereo not drawn) gave 6.214%. With O=c1[nH]c(CCN2CCCC2Cn2cccn2)nc2ccccc12 (stereo not drawn) the screen gave -0.4779%. For CCS(=O)(=O)NCCCNCc1c(C)nn(C)c1N(C)C the result was 10.39%. Result for CCCn1c(C)cc(C(=O)CN2C(=O)c3ccccc3CS2(=O)=O)c1C was -11.18%.

With Cn1ncc(NCc2cccc(COC(C)(C)C)c2)c(Cl)c1=O the screen gave -20.34%. For CC(C)c1noc(CN2CCC3(CCCO3)CCC2=O)n1 (stereo not drawn) the result was 6.223%. O=C(O)C(F)(F)F.[H][C@]12C[C@@H](C(=O)NC)CO[C@@]1([H])CCN(c1ncc(F)cn1)C2 gave 3.204%. Result for CCN1CCN(S(=O)(=O)c2ncn(C)c2Cl)CC1 was -3.359%.

For CNC(=O)c1cc2c(nc1N(C)C)CCN(S(=O)(=O)CC(C)C)CC2.O=C(O)C(F)(F)F the result was -3.017%. With Cc1cc(C(=O)N2CCn3cc(CN4CCN(C)CC4)nc3C2)no1 the screen gave 5.584%. For O=C(NCc1cnc2n1CCN(Cc1cccs1)C2)c1ccno1.O=C(O)C(F)(F)F the result was 10.31%. Result for CC(Cn1cccn1)NC(=O)Cc1csc(C(C)C)n1 (stereo not drawn) was 15.05%.

Cc1ccccc1-c1noc(CN2CCc3nn(C)c(=O)cc3C2)n1 read 12.16%. Result for [H][C@]12CN(C(=O)c3ccnnc3)C[C@@]1([H])OCCN(S(C)(=O)=O)C2 was 2.426%. O=C(O)C(F)(F)F.O=C(O)C(F)(F)F.[H][C@@]12COC[C@]1(CNC(=O)c1ccccc1)CN(Cc1cccc(C)n1)C2 gave 0.4866%. Cl.NC(=O)C1CNCCN1C(=O)COc1ccccc1 (stereo not drawn) read 2.248%.

For COc1ccc(CC(=O)N2CC[C@@H](OC)[C@@H]2Cc2cccnc2)cc1.O=C(O)C(F)(F)F the result was 7.277%. For COc1ccc(COCC(=O)N2CCCC(n3cncn3)C2)cc1 (stereo not drawn) the result was 5.023%. COCCOc1ccc(NC(=O)C2CC(=O)N(CC3CC3)C2)cn1 (stereo not drawn) read 16.92%. With Cl.O=C(NCc1ccc(F)cc1)N1CCN(CC(O)C2CC2)CC1 (stereo not drawn) the screen gave -24.59% and -25.35% and 27.66%.

CCN(CC)C(=O)Nc1cccc(Oc2ccccn2)c1 gave -7.598%. Cc1ccc(C(=O)N2CCCn3nc(CCC(=O)O)cc3C2)cc1Cl gave 0.2632%. With CSCC(=O)N1C[C@H](c2ccc(C)o2)[C@@H](N)C1 the screen gave -1.404%. For Cc1ccc(-n2nc(C)c3c2NC(=O)CC3c2cnc(N)s2)cc1 (stereo not drawn) the result was -4.083% and -6.712%.

c1cnnc(N2CCCC2CNCc2cc[nH]n2)c1 (stereo not drawn) read 5.111%.

For reference, 2 entries once more:

{"compound": "CCN1CCN(S(=O)(=O)c2ncn(C)c2Cl)CC1", "Percent Effect": -3.359}
{"compound": "O=C(c1sccc1C1CC1)N1CCN(CC(F)(F)F)CC1", "Percent Effect": 10.36}

The values are deposited in ChEMBL (CHEMBL3988442, “University of Dundee, Small-Polar-MMV Screening Library” (2021)).